According to patent publication US20110230650A1 (NORTHWESTERN UNIVERSITY, published 2011):
Results are given in words; binding and its absence hold for the method and conditions named. In cells and extracts the contact can be indirect. Some results given as binding are weak or reduced against the parent protein; the word gives no strength. Where a sequence is shown, tags or fusion partners need not be part of it.

T1: KcsA potassium channel (with histidine-tag) (UniProt P0A334)
T1 sequence (looked up): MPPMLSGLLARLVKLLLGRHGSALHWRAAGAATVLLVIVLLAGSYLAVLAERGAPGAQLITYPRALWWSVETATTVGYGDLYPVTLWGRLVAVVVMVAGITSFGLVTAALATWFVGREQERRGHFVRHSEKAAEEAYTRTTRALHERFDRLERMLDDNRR


What was measured:
[1] = biological target: T1, KcsA potassium channel (with histidine-tag); experiment: separate expression in E. coli and mixing, metal-affinity co-purification without detergent, SDS-PAGE
[2] = biological target: T1, KcsA potassium channel (with histidine-tag); experiment: separate expression in E. coli, cell pastes mixed, metal-affinity co-purification of the LP5-KcsA complex without detergent, SDS-PAGE
[3] = biological target: T1, KcsA potassium channel (with histidine-tag); experiment: metal-affinity co-purification with His-tagged KcsA without detergent (data not shown)

| Binder | binding [1] | binding [2] | binding [3] |
| --- | --- | --- | --- |
| LP5 (without histidine-tag) (designed binder) FQKKWQEEMELYRQKVEPLRAELQEGARQKLHELQEKLSPLGEEMRDRARAHVDAFQKKWQEEMELYRQKVEPLRAELQEGARQKLHELQEKLSPLGEEMRDRARAHVDAFQKKWQEEMELYRQKVEPLRAELQEGARQKLHELQEKLSPLGEEMRDRARAHVDAFQKKWQEEMELYRQKVEPLRAELQEGARQKLHELQEKLSPLGEEMRDRARAHVDAFQKKWQEEMELYRQKVEPLRAELQEGARQKLHELQEKLSPLGEEMRDRARAHVDA | binds | binds |  |
| LP6 (designed binder) FQKKWQEEMELYRQKVEPLRAELQEGARQKLHELQEKLSPLGEEMRDRARAHVDAFQKKWQEEMELYRQKVEPLRAELQEGARQKLHELQEKLSPLGEEMRDRARAHVDAFQKKWQEEMELYRQKVEPLRAELQEGARQKLHELQEKLSPLGEEMRDRARAHVDAFQKKWQEEMELYRQKVEPLRAELQEGARQKLHELQEKLSPLGEEMRDRARAHVDAFQKKWQEEMELYRQKVEPLRAELQEGARQKLHELQEKLSPLGEEMRDRARAHVDAFQKKWQEEMELYRQKVEPLRAELQEGARQKLHELQEKLSPLGEEMRDRARAHVDA |  |  | binds |
